Assay results taken from PubChem BioAssay AID1487 (National Center for Advancing Translational Sciences (NCATS), 2009).
The list shows a part of the results. The main result of the screen is listed elsewhere. These columns were measured beside it and carry no call. The list favours compounds with an active or inconclusive main result. Words in brackets tell the shape of the fitted curve; partial curves, single points and poor fits give uncertain potencies.

Experiment: qHTS Assay for Modulators of Lamin A Splicing
Details: HeLa LMNA splicing GFP/RFP minigene ratio, 48 h
Outline: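 S3 HeLa cells stably expressing lamin A-EGFP splicing minigene plus DsRed2, 600 cells/well, 48 h compound exposure at 37C. Laser-scanning cytometry; analysed as GFP (500-530 nm)/RFP (575-640 nm) total intensity ratio; 0.5% DMSO vehicle.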

[1] = measured here: GFP splicing reporter channel
[2] = measured here: RFP viability control channel

| Compound | AC50 [1] | AC50 [2] |
| --- | --- | --- |
| CCn1c2ccc(F)cc2c2nnc(SCCN3CCCCC3)nc21 | 15.8 µM [falling, single point] | 1.26 µM [falling, partial curve, poor fit] |
| Cc1cc(-c2nnc3n2N=C(c2ccc(-c4ccccc4)cc2)CS3)n[nH]1 | 11.2 µM [rising, single point] | 12.6 µM [rising, single point] |
| Cc1cccc(Nc2nnc(SCC(=O)Nc3ccccc3[N+](=O)[O-])s2)c1 | – | 11.2 µM [rising, partial curve, poor fit] |
| C=CCCC(=O)Nc1nc(C)c(-c2csc(Nc3ccc(Cl)cc3)n2)s1 | 0.282 µM [falling, single point] | 0.0316 µM [falling, partial curve] |
| Cc1ccc(CNC(=O)CSc2c3c(nc4ccc(Cl)cc24)CCCC3)o1 | 15.8 µM [falling, single point] | 22.4 µM [falling, single point] |
| CC(=O)Nc1ccc(S(=O)(=O)NCC(=O)OC(C)c2ccccc2Cl)cc1 (stereo unspecified) | 11.2 µM [rising, single point] | 28.2 µM [rising, single point] |
| CN(Cc1cc(Br)cc(Br)c1N)C1CCCCC1 | 35.5 µM [rising, single point] | 31.6 µM [rising, single point] |
| CCCC(c1nnnn1Cc1cccs1)N1CCN(c2ccc(OC)cc2)CC1 (stereo unspecified) | – | 11.2 µM [rising, single point] |
| N#CC1=C(N)OC2=C(CC/C2=C\c2ccccc2)C1c1ccccc1 (stereo unspecified) | 22.4 µM [falling, single point] | 25.1 µM [falling, single point] |
| Cc1ccc(C2=NC3(CCCCC3)N=C2SCC(=O)Nc2ccc3c(c2)OCCO3)cc1 | – | 22.4 µM [rising, single point] |
| O=C(CCc1ccc(S(=O)(=O)N2CCOCC2)cc1)OCc1nc2ccccc2s1 | 35.5 µM [rising, single point] | 0.282 µM [rising, partial curve] |
| Cc1ccc(CNc2nc(-c3cccs3)nc3ccccc23)cc1 | 12.6 µM [rising, partial curve] | 20 µM [rising, partial curve] |
| CCC(=O)Oc1cccc(C(=O)Nc2ccc(-c3nnc(-c4ccco4)o3)cc2)c1 | – | 22.4 µM [rising, partial curve] |
| CCOC(=O)N1CCc2c(sc3c2c(=O)n(-c2ccc(Cl)cc2)c(=O)n3CC(=O)Nc2ccccc2)C1 | – | 35.5 µM [falling, partial curve, poor fit] |
| COc1ccc(Cl)cc1C(=O)NC(=S)Nc1cc(-c2nc3ccccc3[nH]2)ccc1C | 17.8 µM [rising, partial curve, poor fit] | 20 µM [rising, single point] |
| CSc1nc(N(C)CCO)c2sc3nc(-c4ccco4)c4c(c3c2n1)CCC4 | 0.0224 µM [falling, partial curve] | 0.0316 µM [falling, single point] |
| CCOc1ccc(CN2CCN(Cc3nc4c(s3)CCCC4)CC2CCO)cc1 (stereo unspecified) | 7.08 µM [falling, full curve, poor fit] | 11.2 µM [falling, partial curve, poor fit] |

In the list so far, four contain a thiophene ring, fused or not.

| Compound | AC50 [1] | AC50 [2] |
| --- | --- | --- |
| CCCC(c1nnnn1Cc1cccs1)N1CCN(c2ccc(OC)cc2)CC1 (stereo unspecified) | – | 11.2 µM [rising, single point] |
| Cc1ccc(CNc2nc(-c3cccs3)nc3ccccc23)cc1 | 12.6 µM [rising, partial curve] | 20 µM [rising, partial curve] |
| CCOC(=O)N1CCc2c(sc3c2c(=O)n(-c2ccc(Cl)cc2)c(=O)n3CC(=O)Nc2ccccc2)C1 | – | 35.5 µM [falling, partial curve, poor fit] |
| CSc1nc(N(C)CCO)c2sc3nc(-c4ccco4)c4c(c3c2n1)CCC4 | 0.0224 µM [falling, partial curve] | 0.0316 µM [falling, single point] |

More records follow:

| Compound | AC50 [1] | AC50 [2] |
| --- | --- | --- |
| CC(=O)Nc1ccc(-c2csc(NCc3ccccc3)n2)cc1 | – | 35.5 µM [falling, partial curve, poor fit] |
| O=c1oc2cc(O)c(Cl)cc2c2ccccc12 | 6.31 µM [rising, partial curve, poor fit] | 6.31 µM [rising, partial curve] |
| CCOC(=O)N1CCN(C(=O)COc2cccc3c2CCN(Cc2ccccc2C)C3=O)CC1 | – | 35.5 µM [rising, single point] |
| Nc1c(C(=O)Nc2ccc(F)cc2)sc2nc(-c3ccco3)ccc12 | 10 µM [rising, partial curve, poor fit] | 14.1 µM [rising, partial curve] |
| O=C(CNc1ccc2ccccc2c1)N/N=C/c1cc2ccccc2nc1Cl | – | 20 µM [rising, single point] |
| O=C(CCc1ccccc1)NC(=S)Nc1cccc(Br)c1 | – | 3.55 µM [falling, partial curve] |
| COc1ccc(/C=N/N2CCN(C3c4ccccc4-c4ccccc43)CC2)cc1O | – | 11.2 µM [rising, partial curve, poor fit] |
| Cc1nnnn1-c1ccc(CC(=O)O)cc1 | – | 0.0224 µM [rising, full curve, poor fit] |
| Cc1ccc(C(=O)Nc2ccc(C(=O)/C=C/c3cccs3)cc2)cc1 | – | 25.1 µM [falling, single point] |
| Cn1c(SCC(=O)c2ccc(F)cc2)nc2cccnc21 | 12.6 µM [rising, single point] | 17.8 µM [rising, single point] |
| Cc1csc(NC(=O)c2cc3c(C)nn(Cc4ccccc4Cl)c3s2)n1 | 15.8 µM [rising, single point] | 20 µM [rising, single point] |
| Cc1ccc(NC(=O)CSc2nn(-c3ccccc3)c(=S)s2)cc1S(=O)(=O)N(C)C | 3.16 µM [rising, partial curve] | 3.55 µM [rising, full curve] |
| O=C(CCN1CCN(Cc2ccccc2)CC1)Nc1cccc(Cl)c1 | 20 µM [rising, single point] | – |
| O=C(Nc1cccc(Cl)c1)c1ccc2nc(Cc3ccccc3)oc2c1 | – | 5.62 µM [rising, single point] |
| O=S(Cc1ccc(Cl)cc1)CC(O)COCc1ccc(Cl)cc1 (stereo unspecified) | 5.01 µM [rising, full curve, poor fit] | – |
| COc1ccc(NC(=O)c2cc(CN3C(=O)c4ccccc4C3=O)ccc2OC)cn1 | – | 14.1 µM [rising, single point] |
| Cc1ncc(COC(=O)C(C)C)c2cc(C(=O)Nc3ccccc3C(F)(F)F)c(=O)oc12 | – | 0.00316 µM [rising, full curve, poor fit] |
